In article PMC7819943, “Rice protein-binding microarrays: a tool to detect cis-acting elements near promoter regions in rice” one finds binding signal data, which are given here for 42 sequences.

Chains of the proteins cited; added tags and fusions are not shown.
UniProt Q0JBA9, entry or part of it: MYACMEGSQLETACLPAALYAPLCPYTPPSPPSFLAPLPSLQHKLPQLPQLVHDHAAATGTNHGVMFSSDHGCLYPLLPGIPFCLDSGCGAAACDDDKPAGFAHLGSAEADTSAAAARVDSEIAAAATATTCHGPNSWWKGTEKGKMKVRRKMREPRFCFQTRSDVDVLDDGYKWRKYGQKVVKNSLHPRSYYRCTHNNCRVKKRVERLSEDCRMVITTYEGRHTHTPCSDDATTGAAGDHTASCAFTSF

This is one part of the list.

For this assay, the target named is OsWRKY34 (Oryza sativa, UniProt Q0JBA9 1-250). Nature of the assay: protein-binding microarray (RPBM); PBS, 2% BSA, 51.3 ng/ul salmon testes DNA, 50 uM zinc acetate, 200 nM TF, 25 C, 1 h; high values mean tight binding. The note with it: protein: recombinant; tags: N-terminal polyhistidine and DsRed monomer fusion (pET32a); label: CyDye5-dUTP incorporated in the synthesized complementary strand; 3' TTTTT single-stranded linker to array surface; dsDNA, one strand shown. The gist of the method:
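Binding signal is reported as fluorescence intensity per feature (arbitrary units) from an Axon 4000B scanner. Incubation used 200 nM of each Ni–NTA-purified, N-terminally polyhistidine- and DsRed-fused transcription factor from E. coli BL21-CodonPlus on a double-stranded custom Agilent array for 1 h at 25 °C, with 50 µM zinc acetate in the buffer, followed by washing.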
As for “ACCGTGGAGGGAGGGAGGGGCATGGATCTGCTGCGGTGCCCGGAGTCACCTAGTGCAG”, the binding signal is 10300 fluorescence intensity (a.u.).

“TGGAAGTTGTAGGCCTGTTGAATGTTGATGTCTTATTGTCCGGAGTCACCTAGTGCAG”: the binding signal was 8840 fluorescence intensity (a.u.). “TGGATAGTTTTTGCATTAATACGTTCTAATGTACGTCTTACGGAGTCACCTAGTGCAG”: the binding signal is 8370 fluorescence intensity (a.u.). With “CGTGACCTCCGCCTCCGCCTCCGCCGTCCGCCGCCATCCTCGGAGTCACCTAGTGCAG”, the binding signal is 9320 fluorescence intensity (a.u.). With “GCGCGCTGCCTCGCCCTCGCTATATATTCCGCCCATATTCCGGAGTCACCTAGTGCAG” the figure was 9630 fluorescence intensity (a.u.); with “CGTCCGATTGCCTCCGTTCCACTTCCAGTAATTCCATTAACGGAGTCACCTAGTGCAG”, 10900 fluorescence intensity (a.u.). As to “GCCTCCTACACTTACCGTCACCGACCGCGAAAAAATTCCCCGGAGTCACCTAGTGCAG”, the binding signal was 9330 fluorescence intensity (a.u.). With “AAATACTCCTACATCTTTATTTTCTTTTTTGCTAACACAACGGAGTCACCTAGTGCAG” the figure was 8650 fluorescence intensity (a.u.); with “GAGTGGATAGGGAGGTAGTAGTTTGCCCGTCTAATTTTTGCGGAGTCACCTAGTGCAG”, 8260 fluorescence intensity (a.u.); with “CGTTGATCTAGTCTCATATGTCAGTGAACTAACATTTTTTCGGAGTCACCTAGTGCAG”, 9870 fluorescence intensity (a.u.). “GATGACAAAAGCGGGCACCTCCTTATTTTTACATACGGGTCGGAGTCACCTAGTGCAG”: the binding signal is 8480 fluorescence intensity (a.u.). In the case of “CCTTAAATTTAGAGTTGATTTTGGGTTTTTTTATCGTAAACGGAGTCACCTAGTGCAG”, the binding signal is 9770 fluorescence intensity (a.u.). With “CATCATCATATACTCCGCTAATGTCTGTACCAAATCCTAACGGAGTCACCTAGTGCAG” the figure was 8490 fluorescence intensity (a.u.); with “TAAATTTCCCCGCTATAATTTGTCCTAATTAACCCGTCAGCGGAGTCACCTAGTGCAG”, 8540 fluorescence intensity (a.u.); with “ATGATGTCGCTGTCTGTCGGTTCCCTCTGGGCCCCACCCGCGGAGTCACCTAGTGCAG”, 8740 fluorescence intensity (a.u.). Take “TCTAGGTACAGAATACGCCACATTTGTTACATCTCTCTAGCGGAGTCACCTAGTGCAG”: the binding signal was 8040 fluorescence intensity (a.u.). Consider “TATCGGTCTCTCTTTTTTTTTATTTGACACCGTCATTACCCGGAGTCACCTAGTGCAG”, for which the binding signal was 8120 fluorescence intensity (a.u.).

For “CAGTTTCATCCCATTCATGTTCATGTTTTTGTTTTCTTTTCGGAGTCACCTAGTGCAG”, the binding signal was 13400 fluorescence intensity (a.u.). Take “ATATTTTGCTTATACTGTTTGACCACTCGTCTTATTAAAACGGAGTCACCTAGTGCAG”: the binding signal was 8790 fluorescence intensity (a.u.). In the case of “ACCTTATCTACTCGCGTGGGCCCCGCCAGCTCGACCGACTCGGAGTCACCTAGTGCAG”, the binding signal is 8830 fluorescence intensity (a.u.). Consider “GCCACCTCACCATCGTACCATCACTACCCAGTCATCACGACGGAGTCACCTAGTGCAG”, for which the binding signal was 10100 fluorescence intensity (a.u.). As to “CTCCATCACTGCGCCACATGCAGCCTGCCGTTTCGAAAACCGGAGTCACCTAGTGCAG”, the binding signal is 10200 fluorescence intensity (a.u.).

As to “CGCAACTTTAAAATAGGTCAAATGTACAGTTGACCCAAAACGGAGTCACCTAGTGCAG”, the binding signal was 13400 fluorescence intensity (a.u.).

“AGGTTTTCTCCCACTTTGGTTCGACAACATGTTCCTCAATCGGAGTCACCTAGTGCAG”: the binding signal was 10300 fluorescence intensity (a.u.). With “CAACACATCTCTTGCATTTTTTTTTCTTTGCATTCTCATTCGGAGTCACCTAGTGCAG” the figure was 8200 fluorescence intensity (a.u.); with “GTATTTGTTGTCATCGTTTTCTTCGTGTCCTTTCATGATCCGGAGTCACCTAGTGCAG”, 10300 fluorescence intensity (a.u.). On to “TATTATAACTTTATAAGTCGTTTGACTTTTTTTTCCAGTTCGGAGTCACCTAGTGCAG”, for which the binding signal was 12800 fluorescence intensity (a.u.).

As for “GTCGTCTCTCGCCCACTTCGTCGCTCGCTCGCTCATTAATCGGAGTCACCTAGTGCAG”, the binding signal is 12900 fluorescence intensity (a.u.).

With “GATGCAACCGCTCTACTTCCCAACCATCCGACACCACATTCGGAGTCACCTAGTGCAG”, the binding signal was 8810 fluorescence intensity (a.u.). As for “GAGATCACTTTCTTGGTTGAGGTGGTGGCTTTGATCTGACCGGAGTCACCTAGTGCAG”, the binding signal was 8210 fluorescence intensity (a.u.).

With “AGAGAGGGAAGGGAGGGAGGGAGGGAGGAGGGAGAGATCTCGGAGTCACCTAGTGCAG”, the binding signal was 11700 fluorescence intensity (a.u.). As for “GGCTATCGGTGGGTGGGTGGGGTGTACTACTCCCCTATAACGGAGTCACCTAGTGCAG”, the binding signal was 22200 fluorescence intensity (a.u.).

As to “CGCTGGGTCACCAACCTTCGCTGCCACATCGTCTCTCCTCCGGAGTCACCTAGTGCAG”, the binding signal is 8780 fluorescence intensity (a.u.). Consider “CATCCCTATTCTTTCGACCGTGGCATATAATATGTCTATTCGGAGTCACCTAGTGCAG”, for which the binding signal is 9920 fluorescence intensity (a.u.). On to “AGCTCCACCTCCATGGCCGCAAAGCACCATCCTCTCGCATCGGAGTCACCTAGTGCAG”, for which the binding signal was 8850 fluorescence intensity (a.u.). Take “GTGGTAACTTTGTTAATCTCAAGATACGTTGACTTAGTCTCGGAGTCACCTAGTGCAG”: the binding signal was 9280 fluorescence intensity (a.u.). On to “CATCTACGTGCTCTCTTTGGTTGGGGTGTTCTTGCTGCTACGGAGTCACCTAGTGCAG”, for which the binding signal is 17700 fluorescence intensity (a.u.). For “CCTTCACTTCTTCCTCATTGCTCTTTGTTTGTGGAGCAATCGGAGTCACCTAGTGCAG”, the binding signal was 9510 fluorescence intensity (a.u.). Take “CCTCTTGCCACTACTATTTCTAGTAGTCGTGTATCATCATCGGAGTCACCTAGTGCAG”: the binding signal was 8180 fluorescence intensity (a.u.).

With “TACATCCGTTTCCGTTTCGTTCTGTTCTGTTCTGTTGTTTCGGAGTCACCTAGTGCAG”, the binding signal was 29200 fluorescence intensity (a.u.).

As to “AGATGGTTGGGAATGGCTTAGGGAGGGGCTGCTAATTCGGCGGAGTCACCTAGTGCAG”, the binding signal was 12400 fluorescence intensity (a.u.). Take “CCGCATCCGTATCCGCACGTCATCCGCATCCGTTTAAAAACGGAGTCACCTAGTGCAG”: the binding signal is 10400 fluorescence intensity (a.u.).
